# Results reported in PMC8402725.
# By UniProt entry, the sequences of proteins in these tests, tags left out.
# UniProt Q05322: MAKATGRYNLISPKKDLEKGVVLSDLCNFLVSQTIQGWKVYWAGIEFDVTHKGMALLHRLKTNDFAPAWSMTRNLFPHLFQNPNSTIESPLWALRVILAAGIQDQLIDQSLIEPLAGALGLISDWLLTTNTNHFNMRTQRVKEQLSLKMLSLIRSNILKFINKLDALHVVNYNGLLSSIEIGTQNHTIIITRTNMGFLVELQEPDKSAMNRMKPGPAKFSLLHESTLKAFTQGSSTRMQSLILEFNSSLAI
# UniProt P52294: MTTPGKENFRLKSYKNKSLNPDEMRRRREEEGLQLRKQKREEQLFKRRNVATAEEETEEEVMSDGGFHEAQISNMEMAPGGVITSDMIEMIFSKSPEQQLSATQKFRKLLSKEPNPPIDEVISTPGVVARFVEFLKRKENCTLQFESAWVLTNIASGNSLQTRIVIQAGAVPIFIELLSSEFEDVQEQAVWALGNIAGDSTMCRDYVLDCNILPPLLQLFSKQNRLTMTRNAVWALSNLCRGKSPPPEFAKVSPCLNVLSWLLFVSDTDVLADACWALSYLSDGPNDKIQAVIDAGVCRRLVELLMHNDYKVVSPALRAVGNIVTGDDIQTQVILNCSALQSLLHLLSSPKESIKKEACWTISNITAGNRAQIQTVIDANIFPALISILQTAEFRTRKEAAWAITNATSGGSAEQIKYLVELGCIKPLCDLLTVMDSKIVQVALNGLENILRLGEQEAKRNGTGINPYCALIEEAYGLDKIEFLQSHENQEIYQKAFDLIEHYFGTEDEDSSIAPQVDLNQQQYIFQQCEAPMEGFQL
# Results are given in words; binding and its absence hold for the method and conditions named. In cells and extracts the contact can be indirect. Some entries that bind do so weakly or less than the wild type.
# Biological target: EBOV VP24 fused to GFP (GFP-VP24, full-length, residues 1-251) (Ebola virus (EBOV, species Zaire ebolavirus)) (UniProt Q05322)
# Experiment: co-IP
substance,measurement,value
FLAG-tagged karyopherin alpha 1 (FLAG-Kα1) (from UniProt P52294 1-538),binding,binds
